PubChem BioAssay AID1259308, NCATS, 2017
The whole screen tested about 59,000 reagents; shown is a part drawn at random. Of all reagents, about 1,510 (2.6%) were called active. 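Calls use total luciferase alone and ignore viability, so some active siRNAs may act by altering cell number.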 Reagents against one gene are numbered here. Further read-outs or replicates are left out here. No sequences are given here.

- Assay: 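Genes whose loss raises luciferase production in HEK293 cells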 (primary screen)
- Cell system: human HEK293 embryonic kidney cells stably expressing firefly luciferase (HEK-CMV-Luc2-Hygro)
- Reagents: single siRNA against human genes, 0.8 pmol siRNA per well
- Duration: 72 h
- Measurement: 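Luciferase light (ONE-Glo) measured on one replicate plate set and viability (CellTiter-Glo) on the other, scaled to a negative control siRNA, with robust z-scores and luciferase per cell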
- Direction: total luciferase, z-score and total luciferase, % of control: higher = more reporter protein produced
- Active means: 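Active when the median/MAD z-score for overall luciferase is greater than 3; a gene was taken forward for validation with new siRNAs if at least two of its three siRNAs passed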
- Meaning of the calls: active = raised luciferase; inactive = no rise

With SNX24 (sorting nexin 24) #1, what does the deposit list?
total luciferase, z-score: 0.335; total luciferase, % of control: 88.6; activity call: inactive

What is on record for SNX24 (sorting nexin 24) #2?
total luciferase, z-score: 1.13; total luciferase, % of control: 104; activity call: inactive

Which result is listed for SNX24 (sorting nexin 24) #3?
total luciferase, z-score: -0.492; total luciferase, % of control: 72.1; activity call: inactive

For FRG1JP (FSHD region gene 1 family member J, pseudogene) #1, what does the deposit list?
total luciferase, z-score: 1.06; total luciferase, % of control: 103; activity call: inactive

For FRG1JP (FSHD region gene 1 family member J, pseudogene) #2, how do the results read?
total luciferase, z-score: 0.0914; total luciferase, % of control: 83.7; activity call: inactive

What is on record for FRG1JP (FSHD region gene 1 family member J, pseudogene) #3?
total luciferase, z-score: -2.68; total luciferase, % of control: 28.6; activity call: inactive

With GPR176 (G protein-coupled receptor 176) #1, what was measured?
total luciferase, z-score: 2.1; total luciferase, % of control: 124; activity call: inactive

How did the screen score GPR176 (G protein-coupled receptor 176) #2?
total luciferase, z-score: 0.178; total luciferase, % of control: 85.4; activity call: inactive

With GPR176 (G protein-coupled receptor 176) #3, how do the results read?
total luciferase, z-score: 0.0106; total luciferase, % of control: 82.1; activity call: inactive

For PRKCB (protein kinase C beta) #1, what does the deposit list?
total luciferase, z-score: 0.515; total luciferase, % of control: 92.1; activity call: inactive

Which result is listed for PRKCB (protein kinase C beta) #2?
total luciferase, z-score: 0.649; total luciferase, % of control: 94.8; activity call: inactive

Which result is listed for PRKCB (protein kinase C beta) #3?
total luciferase, z-score: 0.807; total luciferase, % of control: 97.9; activity call: inactive

3 of these entries, reformatted.
gene	siRNA no.	total luciferase, z-score	total luciferase, % of control	activity call
SNX24 (sorting nexin 24)	1	0.335	88.6	inactive
SNX24 (sorting nexin 24)	2	1.13	104	inactive
SNX24 (sorting nexin 24)	3	-0.492	72.1	inactive

Continued:
How did the screen score ABCB7 (ATP binding cassette subfamily B member 7) #1?
total luciferase, z-score: -1.9; total luciferase, % of control: 44; activity call: inactive

With ABCB7 (ATP binding cassette subfamily B member 7) #2, how do the results read?
total luciferase, z-score: 0.413; total luciferase, % of control: 90.1; activity call: inactive

Which result is listed for ABCB7 (ATP binding cassette subfamily B member 7) #3?
total luciferase, z-score: -0.59; total luciferase, % of control: 70.1; activity call: inactive

For LAMTOR3 (late endosomal/lysosomal adaptor, MAPK and MTOR activator 3) #1, what does the deposit list?
total luciferase, z-score: 1.69; total luciferase, % of control: 115; activity call: inactive

With LAMTOR3 (late endosomal/lysosomal adaptor, MAPK and MTOR activator 3) #2, what does the deposit list?
total luciferase, z-score: -0.258; total luciferase, % of control: 76.8; activity call: inactive

With LAMTOR3 (late endosomal/lysosomal adaptor, MAPK and MTOR activator 3) #3, what was measured?
total luciferase, z-score: 0.0106; total luciferase, % of control: 82.1; activity call: inactive

What is on record for SLC34A3 #1?
total luciferase, z-score: -0.249; total luciferase, % of control: 76.9; activity call: inactive

With SLC34A3 #2, what does the deposit list?
total luciferase, z-score: -0.125; total luciferase, % of control: 79.4; activity call: inactive

For SLC34A3 #3, how do the results read?
total luciferase, z-score: -0.135; total luciferase, % of control: 79.2; activity call: inactive

Which result is listed for IFI16 (interferon gamma inducible protein 16) #1?
total luciferase, z-score: 0.703; total luciferase, % of control: 95.9; activity call: inactive

Which result is listed for IFI16 (interferon gamma inducible protein 16) #2?
total luciferase, z-score: 1.09; total luciferase, % of control: 104; activity call: inactive

Which result is listed for IFI16 (interferon gamma inducible protein 16) #3?
total luciferase, z-score: -0.555; total luciferase, % of control: 70.9; activity call: inactive

For ADD2 (adducin 2) #1, what was measured?
total luciferase, z-score: -1.33; total luciferase, % of control: 55.5; activity call: inactive

Which result is listed for ADD2 (adducin 2) #2?
total luciferase, z-score: -2.21; total luciferase, % of control: 37.9; activity call: inactive

For ADD2 (adducin 2) #3, how do the results read?
total luciferase, z-score: -0.702; total luciferase, % of control: 67.9; activity call: inactive

With FOCAD (focadhesin) #1, what does the deposit list?
total luciferase, z-score: -0.701; total luciferase, % of control: 67.9; activity call: inactive

For FOCAD (focadhesin) #2, what does the deposit list?
total luciferase, z-score: 0.987; total luciferase, % of control: 102; activity call: inactive

For FOCAD (focadhesin) #3, how do the results read?
total luciferase, z-score: -1.36; total luciferase, % of control: 54.8; activity call: inactive

For PPIAP59 (peptidylprolyl isomerase A pseudogene 59) #1, what does the deposit list?
total luciferase, z-score: -1.17; total luciferase, % of control: 58.6; activity call: inactive

For PPIAP59 (peptidylprolyl isomerase A pseudogene 59) #2, how do the results read?
total luciferase, z-score: 6.98; total luciferase, % of control: 221; activity call: active

How did the screen score PPIAP59 (peptidylprolyl isomerase A pseudogene 59) #3?
total luciferase, z-score: -0.748; total luciferase, % of control: 67; activity call: inactive
